Taken from: PubChem BioAssay AID602196 (INSERM, 2012)
The whole screen tested about 23,000 reagents; below is an unselected part. Over the whole deposit, 455 (2%) are marked active. 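Active includes both protection and sensitisation; some change values fall well beyond the stated -50 to +50 range.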 Further read-outs or replicates are left out here. The record does not give: the amount of reagent.

Screen: 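Knock-downs that protect lung cancer cells from cisplatin or sensitise them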
Cells: human A549 lung cancer cells
Reagents: siRNA pair against human genes
Time to read-out: 48 h transfection before cisplatin; time from cisplatin to read-out not stated
Conditions: cisplatin at a dose killing half of control-siRNA cells; exact dose and duration not given
Read-out: 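Shift in cisplatin death relative to control siRNA, from -50 (all cells die) to +50 (no cells die); siRNAs harmful on their own scored 0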
Direction: two-siRNA summed score (-2 to +2): higher = both siRNAs protect from cisplatin killing; -2 means both sensitise
Hit rule: 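Each siRNA scores 0 if harmful alone by LDH or WST-1, otherwise +1 if it reduces and -1 if it increases cisplatin killing; a gene is active when both siRNAs agree (sum +2 or -2)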
Meaning of the calls: active = both siRNAs shift cisplatin killing the same way; inactive = no consistent shift, or siRNA harmful alone

Knock-down of PFN4 [SID131511985] gave: two-siRNA summed score (-2 to +2) = 0; inactive.
TNIP3 [SID131513986] gave two-siRNA summed score (-2 to +2) = 0; inactive.
Knock-down of TRMT10C [SID131510050] gave: two-siRNA summed score (-2 to +2) = 0; inactive.
Silencing of KAAG1 [SID131502549] resulted in: two-siRNA summed score (-2 to +2) = -1; inactive.
STX7 [SID131503129] showed two-siRNA summed score (-2 to +2) = 0; inactive.
Against YPEL3 [SID131505396], the values are two-siRNA summed score (-2 to +2) = 0; inactive.
Against ALDOB [SID131501422], the values are two-siRNA summed score (-2 to +2) = -1; inactive.
FLJ44082 [SID131517045] showed two-siRNA summed score (-2 to +2) = 0; inactive.
After knock-down of DTX3L [SID131505964], the screen gave two-siRNA summed score (-2 to +2) = 0; inactive.
SH2D6 [SID131521304] scored two-siRNA summed score (-2 to +2) = 1; inactive.
ARV1 [SID131506920] showed two-siRNA summed score (-2 to +2) = 0; inactive.
Against GDAP1L1 [SID131505601], the values are two-siRNA summed score (-2 to +2) = 0; inactive.
Knock-down of CARM1LP [SID131520938] gave: two-siRNA summed score (-2 to +2) = 1; inactive.
For LOC196394 [SID131511535], the entry reads two-siRNA summed score (-2 to +2) = 0; inactive.
GCSH [SID131519169] scored two-siRNA summed score (-2 to +2) = 1; inactive.
Depletion of KANK3 [SID131504887] gave: two-siRNA summed score (-2 to +2) = 0; inactive.
Against CFAP20 [SID131510656], the values are two-siRNA summed score (-2 to +2) = 0; inactive.
After knock-down of LOC162073 [SID131509645], the record shows two-siRNA summed score (-2 to +2) = 0; inactive.
Silencing of TOP2A [SID131504578] came out at: two-siRNA summed score (-2 to +2) = 0; inactive.
Depletion of ZNF75D [SID131522437] came out at: two-siRNA summed score (-2 to +2) = 1; inactive.
ZNF26 [SID131512737] showed two-siRNA summed score (-2 to +2) = 0; inactive.
After knock-down of NMB [SID131509537], the record shows two-siRNA summed score (-2 to +2) = 0; inactive.
Against C8orf82 [SID131522286], the values are two-siRNA summed score (-2 to +2) = 1; inactive.
Knock-down of LOC400954 [SID131514171] came out at: two-siRNA summed score (-2 to +2) = 0; inactive.
After knock-down of LOC440308 [SID131516094], the record shows two-siRNA summed score (-2 to +2) = 0; inactive.
DNAJC19 [SID131514330] gave two-siRNA summed score (-2 to +2) = 0; inactive.
ANKEF1 [SID131509597] showed two-siRNA summed score (-2 to +2) = 0; inactive.
Against CACNA1G-AS1 [SID131514869], the entry reads two-siRNA summed score (-2 to +2) = 0; inactive.
After knock-down of PTCD1 [SID131513530] the results were two-siRNA summed score (-2 to +2) = 0; inactive.
With knock-down of COX8A [SID131517715], the screen gave two-siRNA summed score (-2 to +2) = 0; inactive.
Knock-down of EIF3E [SID131511998] resulted in: two-siRNA summed score (-2 to +2) = 0; inactive.

Taken from above.
Entry for C8orf82 [SID131522286] in “Outcome”: inactive
DNAJC19 [SID131514330], Outcome → inactive
